Laboratory results as given in PubChem BioAssay AID2685 (National Center for Advancing Translational Sciences (NCATS), 2010).
Among all 320,000 compounds or so, about 2,100 (0.66%) were called active. Inconclusive results, whose numbers are uncertain, are shown with a selection of clear calls. The call rests on the fitted dose curve; in most records, active means well fitted inhibition curve with a large enough effect in the signal ratio, with a control signal flat (not every such curve was filed as active); inconclusive means small, poorly fitted or top-dose-only effect, or effect the other way, or a change in a side signal; inactive means flat fitted curve, though single readings scatter; the % refers to the signal ratio. Potencies of inconclusive entries are doubtful fits and often do not repeat.
On the % scale 0 is the no-effect control and ±100 the full control effect; potency means the concentration at half of the fitted maximal effect.

Assay: qHTS Assay for Lipid Storage Modulators in Drosophila S3 Cells
Conditions: BODIPY lipid droplet fluorescence, 18-24 h, cells fed with added oleic acid; lipid storage change, negative = inhibition: at 46.1 µM (top of the series) unless noted
Procedure, shortened: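 Drosophila S3 cells loaded with oleic acid (400 uM, as added) and compounds at several concentrations; lipid droplets imaged by 488-nm laser-scanning cytometry, 500–530 nm intensity and object ratio to cell channel. Percent activity normalized to 20 uM Triacsin C.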
In the case of `O=C1C2CC=CCC2C(=O)N1CC(=O)N(Cc1ccccc1)C1CCS(=O)(=O)C1` (configuration not stated), the Potency is reported as inconclusive: 1300 nM [falling, full curve]. For `Cc1cc(C)c(C(=O)N(C)C2CCCN(Cc3ccccc3F)C2)o1` (configuration not stated), the lipid storage change, negative = inhibition was inconclusive: -34.3%. For `COc1ccc(-c2cn(CCC(=O)O)c(-c3ccncc3)n2)cc1`, the Potency was inconclusive: 4.6 nM [activator, full curve, poor fit]. In the case of `Cc1cc2nnc(SCC(=O)NCC(c3ccccc3)N(C)C)n2c2ccccc12` (configuration not stated), the lipid storage change, negative = inhibition is reported as inconclusive: 4.06%. In the case of `COC(=O)C1C(=O)C=C(Nc2ccc(F)cc2)CC1c1ccc(OC)cc1` (configuration not stated), the lipid storage change, negative = inhibition is reported as inconclusive: 23.4%. For `CSCC[C@@H](C(=O)Nc1ccc2c(c1)OCCO2)N1Cc2ccccc2C1=O`, the lipid storage change, negative = inhibition was inconclusive: -65.1%. In the case of `C=CCn1c(=O)c(C(=O)Nc2ccc(C)cc2)c(O)c2ccccc21`, the Potency is reported as inconclusive: 6510 nM [activator, full curve, poor fit]. For `Cc1nn(C)c(C(=O)NNC(=S)Nc2ccc(Cl)cc2)c1[N+](=O)[O-]`, the lipid storage change, negative = inhibition was inconclusive: -35.7%. For `COc1ccc(OC)c(NC(=O)CN(C)CC(=O)Nc2ccccc2Br)c1`, the lipid storage change, negative = inhibition was inconclusive: 18.7%. In the case of `COc1ccc(C(=O)NCc2nnc(SCC(=O)NC3CCCCC3)o2)cc1`, the Potency is reported as inconclusive: 29100 nM [falling, single point]. In the case of `Cc1ccc(OCCSc2ncnc3sc(C)c(C)c23)cc1C`, the lipid storage change, negative = inhibition is reported as “inactive”. In the case of `CCn1ccnc1CNC(=O)CC1C(=O)NCCN1Cc1ccccc1F` (configuration not stated), the Potency is reported as inconclusive: 164 nM [falling, full curve]. In the case of `O=C(CSC1=Nc2ccccc2C2=NC(c3ccccc3)C(=O)N12)NCC1CCCO1` (configuration not stated), the Potency is reported as inconclusive: 2310 nM [activator, partial curve]. For `CCn1c(SCC(=O)N=Nc2c(O)[nH]c3ccccc23)nc2ccccc21`, the lipid storage change, negative = inhibition was inconclusive: 102%. With `COc1ccc(S(=O)(=O)Oc2ccc3c(c2)O/C(=C\c2cccnc2)C3=O)cc1` the Potency was inconclusive: 3660 nM [activator, single point]. In the case of `COc1cccc(N2CCN(c3c(C#N)c(C(F)(F)F)nn3C)CC2)c1`, the Potency is reported as inconclusive: 14600 nM [falling, partial curve, poor fit]. In the case of `Cc1cc(C(=O)NC2CCCc3ccccc32)no1` (configuration not stated), the lipid storage change, negative = inhibition is reported as inconclusive: -3.8%. With `COc1ccc(C(=O)C2CCN(C(=O)Nc3ccc(C)cc3)CC2)cc1` the Potency was inconclusive: 206 nM [activator, single point]. With `COc1cc2ccccc2cc1C(=O)N1CCOCC1` the Potency was inconclusive: 5170 nM [activator, partial curve]. In the case of `COn1c(SCc2ccccc2)nc2ccccc2c1=O`, the Potency is reported as inconclusive: 29100 nM [falling, single point]. In the case of `COc1cc(OC)cc(C(=O)N[C@H](C(=O)Nc2nc(-c3cc(OC)ccc3OC)cs2)C(C)C)c1`, the lipid storage change, negative = inhibition is reported as inconclusive: -19.2%. In the case of `O=C(COC(=O)CN1C(=O)c2ccccc2C1=O)Nc1ccc(S(=O)(=O)N2CCCC2)cc1`, the Potency is reported as inconclusive: 116 nM [falling, full curve, poor fit]. For `O=C(COC(=O)CNC(=O)c1cccc(OC(F)F)c1)NNC(=O)c1ccccc1`, the Potency was inconclusive: 231 nM [activator, full curve, poor fit]. With `CCOc1ccc(-c2cc(C(=O)OC)nc3c2c(=O)n(C)c(=O)n3C)cc1` the lipid storage change, negative = inhibition was “inactive”. For `O=C(O)COc1ccc(Cl)cc1CO`, the lipid storage change, negative = inhibition was inconclusive: -138%. In the case of `COc1ccccc1/C=C/C(=O)OC(C)CN1CCCCC1` (configuration not stated), the Potency is reported as inconclusive: 29100 nM [falling, single point]. In the case of `CCOC(=O)C(C)Sc1nc(N)c(NC(=O)c2ccc(OC)c(OC)c2)c(=O)[nH]1` (configuration not stated), the lipid storage change, negative = inhibition is reported as inconclusive: -30.4%. In the case of `Cc1cc(-n2cnc(-c3cn(C)nc3C)n2)no1`, the lipid storage change, negative = inhibition is reported as inconclusive: 9.56%. In the case of `CCc1ccc(Nc2nnc(SCC(=O)N(C)C3CCS(=O)(=O)C3)s2)cc1` (configuration not stated), the lipid storage change, negative = inhibition is reported as inconclusive: -24.3%. With `COc1ccc(NC(=O)CSCC(=O)N(C)Cc2ccc3c(c2)OCCO3)cc1` the lipid storage change, negative = inhibition was inconclusive: -71.9%. With `CC(=O)Nc1ccccc1NC(=O)C(F)(F)F` the lipid storage change, negative = inhibition was inconclusive: -19%. With `COc1ccc(Cn2c(=O)[nH]c3cc(C(=O)N4CCN(c5ccccc5)CC4)ccc3c2=O)cc1` the lipid storage change, negative = inhibition was inconclusive: 70.2%. With `CCc1c(C)nc(N)n2c(SCC(=O)Nc3ccccc3OC)nnc12` the lipid storage change, negative = inhibition was “inactive”. For `COCc1cc(C)nc(OCC(=O)N/N=C/c2ccc(O)cc2)c1C#N`, the Potency was inconclusive: 8200 nM [activator, partial curve]. For `CCOC(=O)c1[nH]cnc1C(=O)Nc1ccccc1`, the Potency was inconclusive: 92 nM [falling, full curve, poor fit]. For `Cn1nnnc1SCC(=O)Nc1cccc(S(=O)(=O)N2CCCC2)c1`, the Potency was inconclusive: 116 nM [cytotoxic, full curve, poor fit]. For `CN(C)CCn1c2c(c(SCC(=O)Nc3nccs3)nc1=O)CCCC2`, the lipid storage change, negative = inhibition was inconclusive: -0.615%. With `CCCS(=O)(=O)N1CCCC(C(=O)NCCCN(C)Cc2ccccc2)C1` (configuration not stated) the lipid storage change, negative = inhibition was inconclusive: -4.84%. For `Cc1cc(Cl)nc(Cl)c1C(=O)NCCc1ccccc1`, the lipid storage change, negative = inhibition was inconclusive: 51.1%. In the case of `CCN(CC)S(=O)(=O)c1ccc(OC)c(NC(=O)CCc2c(C)noc2C)c1`, the lipid storage change, negative = inhibition is reported as inconclusive: -84%. For `CCN(CC)S(=O)(=O)c1ccc(C(=O)Nn2cnnc2)cc1`, the lipid storage change, negative = inhibition was inconclusive: -16.7%. For `O=C(N1CCCCC1)C12CC3CC(C1)CC(C(=O)N1CCCCC1)(C3)C2`, the lipid storage change, negative = inhibition was “inactive”. In the case of `COCCN1C(=O)C(=O)/C(=C(/O)c2ccc(S(=O)(=O)N3CCOCC3)cc2)C1c1ccc(C(C)C)cc1` (configuration not stated), the lipid storage change, negative = inhibition is reported as inconclusive: -6.36%. For `CCOCCCn1c(=S)[nH]c2cc(C(=O)NCCOC)ccc2c1=O`, the lipid storage change, negative = inhibition was inconclusive: -33.7%. With `COc1ccc(N(C)C(=O)C2CCN(S(=O)(=O)c3cccc4nsnc34)CC2)cc1` the Potency was inconclusive: 29100 nM [activator, single point]. With `COc1cccc(NS(=O)(=O)c2ccc3c(c2)CCN3C(C)=O)c1` the Potency was active: 1640 nM. With `COc1ccc(-c2[nH]c(-c3ccc(F)cc3)nc2SCC(=O)NCc2ccco2)cc1OC` the lipid storage change, negative = inhibition was inconclusive: -10.6% [at 9.22 µM].
